Measured values published in patent US20230407367, “INTRINSICALLY DISORDERED PROTEINS FOR EXTRACTION OF NUCLEIC ACIDS” (published 2023).

Assays:
Assay in all cases: EMSA
[1] = test system: T1, E3 ELP [(VPGXG)10-GKG]8 (synthetic construct); details: pH 6 citrate/Na2HPO4, room temperature, below Tt, up to 1000 uM E3; no appreciable binding; purified recombinant protein; single-stranded DNA
T1 sequence: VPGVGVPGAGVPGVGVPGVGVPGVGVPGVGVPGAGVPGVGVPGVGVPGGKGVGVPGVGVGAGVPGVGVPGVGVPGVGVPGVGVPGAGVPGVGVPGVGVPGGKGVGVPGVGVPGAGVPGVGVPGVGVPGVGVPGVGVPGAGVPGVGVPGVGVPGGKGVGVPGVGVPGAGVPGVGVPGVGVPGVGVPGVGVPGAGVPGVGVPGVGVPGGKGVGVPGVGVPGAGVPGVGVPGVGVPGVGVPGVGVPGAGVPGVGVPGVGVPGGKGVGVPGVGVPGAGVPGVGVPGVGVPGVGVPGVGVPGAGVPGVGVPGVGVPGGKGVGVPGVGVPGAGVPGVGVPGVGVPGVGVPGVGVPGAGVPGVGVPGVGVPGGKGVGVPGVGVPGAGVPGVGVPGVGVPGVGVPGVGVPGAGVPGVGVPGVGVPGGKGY

[2] = test system: T2, H-20 His-ELP (synthetic construct); details: pH 9 100 mM Tris 4 C at 100 uM; also none at pH 8 with 300 mM NaCl; purified recombinant protein; single-stranded DNA
T2 sequence: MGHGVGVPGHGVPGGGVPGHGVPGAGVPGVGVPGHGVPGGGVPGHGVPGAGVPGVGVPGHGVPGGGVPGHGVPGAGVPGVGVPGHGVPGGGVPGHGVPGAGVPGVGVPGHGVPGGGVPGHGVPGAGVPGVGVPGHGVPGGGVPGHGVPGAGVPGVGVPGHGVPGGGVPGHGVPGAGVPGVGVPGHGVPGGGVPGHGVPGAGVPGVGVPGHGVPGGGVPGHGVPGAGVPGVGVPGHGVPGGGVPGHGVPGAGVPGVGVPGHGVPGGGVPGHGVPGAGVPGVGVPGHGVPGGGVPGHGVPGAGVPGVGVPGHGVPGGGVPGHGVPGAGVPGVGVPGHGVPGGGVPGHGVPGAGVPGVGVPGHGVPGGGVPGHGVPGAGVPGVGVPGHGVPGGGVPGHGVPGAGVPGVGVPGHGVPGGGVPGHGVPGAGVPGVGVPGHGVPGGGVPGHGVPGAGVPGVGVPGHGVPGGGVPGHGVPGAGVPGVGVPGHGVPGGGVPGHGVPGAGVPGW

[3] = test system: T3, H-24 His-ELP (synthetic construct); details: pH 9 100 mM Tris 4 C at 100 uM; also none at pH 8 with 300 mM NaCl; purified recombinant protein; single-stranded DNA
T3 sequence: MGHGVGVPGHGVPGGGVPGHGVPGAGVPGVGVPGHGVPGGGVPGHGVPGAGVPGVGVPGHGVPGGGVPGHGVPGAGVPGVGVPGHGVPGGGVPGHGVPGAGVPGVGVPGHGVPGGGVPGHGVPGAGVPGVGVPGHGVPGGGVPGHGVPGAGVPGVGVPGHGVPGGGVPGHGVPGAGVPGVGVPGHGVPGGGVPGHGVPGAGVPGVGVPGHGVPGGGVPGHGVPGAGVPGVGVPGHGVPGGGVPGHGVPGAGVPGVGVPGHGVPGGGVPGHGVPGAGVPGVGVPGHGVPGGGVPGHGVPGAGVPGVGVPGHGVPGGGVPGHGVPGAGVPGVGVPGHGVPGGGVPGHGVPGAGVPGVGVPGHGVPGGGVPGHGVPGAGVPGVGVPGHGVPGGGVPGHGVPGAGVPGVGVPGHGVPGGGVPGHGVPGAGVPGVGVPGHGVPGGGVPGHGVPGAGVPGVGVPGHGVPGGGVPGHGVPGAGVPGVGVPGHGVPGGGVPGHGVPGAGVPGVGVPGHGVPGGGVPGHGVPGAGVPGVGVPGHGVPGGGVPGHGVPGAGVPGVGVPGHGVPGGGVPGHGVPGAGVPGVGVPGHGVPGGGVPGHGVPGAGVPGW

Measured: binding result

TTTTTCCTAGAGAGTAGAGCCTGCTTCG [ssDNA 28 nt]
no binding: all assays above

Negatives hold for the conditions tested. Protein sequences can lack the tags named with them.
